This is an account of results in the supplement of paper PMC8326762, “A Small Molecule Inhibitor of Pex3–Pex19 Interaction Disrupts Glycosome Biogenesis and Causes Lethality in Trypanosoma brucei” (Frontiers in Cell and Developmental Biology, 2021).

Where a name gives a salt, the structure may show the parent alone. The list shows a part of the results. Single values of this set are uncertain.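 Optical density at 600 nm measured yeast growth. Because the two-hybrid strains grew without histidine, growth required Pex3–Pex19 binding. Trypanosome selectivity meant a compound inhibited the trypanosome-pair strain's growth by more than 65% but the human-pair strain's by less than 65%.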

In experiment [1] the test system is Saccharomyces cerevisiae HF7c pdr5Δ. Briefly: general growth inhibition of yeast HF7c pdr5Δ in -Leu -Trp medium, relative to DMSO; higher = stronger general growth inhibition. Particulars: 100 µM; 24 h.
Experiment [2] has as its system human PEX3-PEX19 interaction (yeast two-hybrid). Briefly: growth inhibition of yeast two-hybrid strain reporting HsPex3-HsPex19 interaction, relative to DMSO; higher = stronger inhibition of human Pex3-Pex19 interaction / growth. Particulars: 100 µM; 24 h; 3-aminotriazole 10 mM.
The subject of experiment [3] is T. brucei Pex3-Pex19 interaction (yeast two-hybrid). Briefly: growth inhibition of yeast two-hybrid strain reporting TbPex3-TbPex19 interaction, relative to DMSO; higher = stronger inhibition of T. brucei Pex3-Pex19 interaction / growth. Particulars: 100 µM; 24 h.

In experiment [1], `Fc1ccc(C(OCCN2CCN(CCCc3ccccc3)CC2)c2ccc(F)cc2)cc1` had a general growth inhibition of 14.2%. For the same compound, the growth inhibition in experiment [2] was found to be 19.9%; in experiment [3], 20.4%.

The compound `NC1CCc2cc(O)c(O)cc2C1` (stereo not drawn) [6,7-ADTN hydrobromide] gave a general growth inhibition in experiment [1] of 32.7%. Further, the results for the growth inhibition in experiment [2] and in experiment [3] were 41.1% and 47.7%, respectively.

As to `CC(C)c1cccc(C(C)C)c1O` [Propofol], in experiment [1], the general growth inhibition came to 34.1%. Also, the growth inhibition was 41.9% in experiment [2] and 49.5% in experiment [3].

Turning to `O=C(O)c1nn(Cc2ccc(Cl)cc2Cl)c2ccccc12` [Lonidamine], in experiment [1], the general growth inhibition was 23%. The growth inhibition in experiment [2] came out at 22.6%; in experiment [3] it was 23.9%.

`CCn1cc(C(=O)O)c(=O)c2cc3c(cc21)OCO3` [Oxolinic acid] yielded a general growth inhibition in experiment [1] of 12.6%. The growth inhibition in experiment [2] was determined as 12.6%; in experiment [3] it was 35.4%.

`CC(=O)[C@H]1CC[C@H]2[C@@H]3CC[C@H]4C[C@H](O)CC[C@]4(C)[C@H]3C(=O)C[C@]12C` [5alpha-Pregnan-3alpha-ol-11,20-dione] registered a general growth inhibition in experiment [1] of 68.7%. Also, the growth inhibition in experiment [2] came to 55.2%; in experiment [3], 62.4%.

Turning to `CNCCc1c[nH]c2ccc(O)cc12` [N-omega-Methyl-5-hydroxytryptamine oxalate salt], in experiment [1], the general growth inhibition turned out to be 54.7%. Moreover, the growth inhibition in experiment [2] was 50.6%; in experiment [3] it was 68.6%.

`CC(C)NP(=O)(NC(C)C)OP(=O)(NC(C)C)NC(C)C` [Tetraisopropyl pyrophosphoramide] had a general growth inhibition in experiment [1] of 48.1%. In addition, the growth inhibition in experiment [2] was 50.8%; in experiment [3] it was 52.3%.

As to `CCNC(=O)[C@H]1O[C@@H](n2cnc3c(N)ncnc32)[C@H](O)[C@@H]1O` [5'-N-Ethylcarboxamidoadenosine], the general growth inhibition in experiment [1] came to 26%. For the same compound, the growth inhibition is 51.9% in experiment [2] and 59.5% in experiment [3].

Regarding `COc1cc2c(cc1OC)C1CC(=O)C(CC(C)C)CN1CC2` (stereo not drawn) [Tetrabenazine], the general growth inhibition in experiment [1] was 44.4%. The growth inhibition is 37.6% in experiment [2] and 69.1% in experiment [3].

`COc1ccc2[nH]cc(CCN)c2c1` [O-Methylserotonin hydrochloride] showed a general growth inhibition in experiment [1] of 49.7%. For the same compound, the values for the growth inhibition in experiment [2] and in experiment [3] were 46% and 68.1%, respectively.

`N=C(N)c1ccc(CS(=O)(=O)F)cc1` [4-Amidinophenylmethanesulfonyl fluoride hydrochloride] returned a general growth inhibition in experiment [1] of 46.3%. In addition, the growth inhibition in experiment [2] turned out to be 45.6%; in experiment [3], 72.4%.

For `N#Cc1ccc(N2CCN(C(=O)COc3ccc4[nH]cc(CCN)c4c3)CC2)cc1` [Donitriptan monohydrochloride], the general growth inhibition in experiment [1] is 23.9%. In addition, the figures for the growth inhibition in experiment [2] and in experiment [3] were 28.1% and 50.7%, respectively.

In experiment [1], `O=C1C=CC(=O)C=C1` [p-Benzoquinone] came in with a general growth inhibition of 74.1%. In addition, the growth inhibition in experiment [2] was 42.3%; in experiment [3], 73%.

In experiment [1], `CN1CC[C@@]2(C)c3cc(OC(=O)Nc4ccccc4)ccc3N(C)[C@@H]12` [Phenserine] came in with a general growth inhibition of 36.6%. Moreover, the growth inhibition is 37.8% in experiment [2] and 60.5% in experiment [3].

The compound `CCCN(CCC)[C@@H]1CCc2cccc(O)c2C1` [R-(+)-8-Hydroxy-DPAT hydrobromide] showed a general growth inhibition in experiment [1] of 1.91%. In addition, the growth inhibition in experiment [2] is -4.69%; in experiment [3], 34.1%.

With `C[C@H](N)CN1CCc2ccc(Br)cc21` [VER-3323 hemifumarate salt], the general growth inhibition in experiment [1] is 35.8%. The growth inhibition in experiment [2] is 11.6%; in experiment [3] it was 61.9%.

As for `CN(C(=O)Cc1ccc(Cl)c(Cl)c1)C(CN1CCCC1)c1cccc(OCC(=O)O)c1` (stereo not drawn) [ICI 204,448 hydrochloride], in experiment [1], the general growth inhibition is 43.5%. In addition, the figures for the growth inhibition in experiment [2] and in experiment [3] were 48.7% and 60.1%, respectively.

`CN1[C@@H]2C[C@@H](OC(=O)[C@H](CO)c3ccccc3)C[C@H]1[C@@H]1O[C@@H]12` [(-)-Scopolamine hydrobromide]: the general growth inhibition in experiment [1] was 50.4%. Moreover, the growth inhibition in experiment [2] was 50.5%; in experiment [3], 72.6%.

On to `CCOC(=O)c1ncn2c1[C@@H]1CCCN1C(=O)c1cc(OC)ccc1-2`, for which the general growth inhibition in experiment [1] is 46.2%. The growth inhibition amounted to 42.6% in experiment [2] and 67.8% in experiment [3].

In experiment [1], `NCC(CC(=O)O)c1ccc(Cl)cc1` (racemic) [(±)-Baclofen] yielded a general growth inhibition of 30.9%. Further, the growth inhibition in experiment [2] came to 32.2%; in experiment [3], 58.6%.

As to `CC(N)C(O)c1ccc(O)c(O)c1` (single isomer, unassigned; (-)) [(-)-alpha-Methylnorepinephrine], in experiment [1], the general growth inhibition was found to be 54.3%. Moreover, the growth inhibition in experiment [2] worked out at 51.6%; in experiment [3], 70.1%.

Turning to `CCN1C[C@]2(COC)[C@H](O)C[C@H](OC)[C@@]34[C@@H]5C[C@@]6(O)[C@H](OC(=O)c7ccccc7)[C@@H]5[C@@](OC(C)=O)([C@@H]([C@H](OC)[C@H]23)[C@@H]14)[C@@H](O)[C@@H]6OC` [Aconitine], in experiment [1], the general growth inhibition was 48%. The growth inhibition in experiment [2] amounted to 41.6%; in experiment [3], 63.6%.

For the compound `CCCn1c(=O)c2[nH]c(C3CCCC3)nc2n(CCCOC(=O)c2ccc(S(=O)(=O)F)cc2)c1=O`, the general growth inhibition in experiment [1] worked out at 29.6%. Moreover, the growth inhibition was 13.2% in experiment [2] and 39.1% in experiment [3].

For the compound `CC(C)C1CNC(C(=O)O)C1CC(=O)O` (stereo not drawn) [Dihydrokainic acid], the general growth inhibition in experiment [1] turned out to be 35.1%. In addition, the growth inhibition in experiment [2] was 47.1%; in experiment [3], 61.7%.

`C#C[C@]1(O)CC[C@H]2[C@@H]3CCC4=Cc5nc6nc7ccccc7n6cc5C[C@]4(C)[C@H]3CC[C@@]21C`: the general growth inhibition in experiment [1] amounted to 35.7%. In addition, the growth inhibition in experiment [2] is 31%; in experiment [3] it was 49.9%.

On to `NCCc1c[nH]c2ccc(O)cc12` [Serotonin hydrochloride], for which the general growth inhibition in experiment [1] came out at 37.8%. Further, the growth inhibition in experiment [2] amounted to 40.2%; in experiment [3], 62%.

The compound `Ic1ccccc1CNC1C2CCN(CC2)C1C(c1ccccc1)c1ccccc1` [L-703,606 oxalate salt hydrate] returned a general growth inhibition in experiment [1] of 33.3%. For the same compound, the values for the growth inhibition in experiment [2] and in experiment [3] were 25.1% and 67%, respectively.

On to `CN1[C@@H]2CC[C@H]1C[C@@H](OC(=O)C(CO)c1ccccc1)C2` (stereo partly drawn) [Atropine sulfate], for which the general growth inhibition in experiment [1] stood at 37.7%. The growth inhibition came to 32.4% in experiment [2] and 65.1% in experiment [3].

Compound `NNC(=O)c1ccc(O)cc1` [4-Hydroxybenzhydrazide] gave a general growth inhibition in experiment [1] of 24.6%. Moreover, the growth inhibition turned out to be 35.4% in experiment [2] and 54% in experiment [3].

In experiment [1], `Oc1ccc2c3c1O[C@H]1c4oc5ccccc5c4C[C@@]4(O)[C@@H](C2)N(CC2CC2)CC[C@]314` [Naltriben methanesulfonate] yielded a general growth inhibition of 31.5%. For the same compound, the figures for the growth inhibition in experiment [2] and in experiment [3] were 43% and 57.8%, respectively.
